This is an account of results in US6737272B2, “Methods for modulation of oocyte activation” (The Board of Trustees of the Leland Stanford Junior …, priority 1999, dated 2004).

The experiment has as its system NOS. The note with it: gamete homogenates; ornithine 1.5 mM, nitro-L-arginine 100 μM.

For the compound `NCCC[C@H](N)C(=O)O` [ornithine], the “effect on citrulline conversion activity” value is reported as “no inhibition”.
